Common to all, as to conditions: yeast three-hybrid, YBZ-1, SC-Leu-His + 0.5 mM 3-AT, 4 days
For assay [1], the target named is T1, PUM1 PUF domain R2-VFQ R3-THE R4-TFR N899V + Y900F + C935T + R936H + Q939E + N971T + H972F + Q975R (UniProt Q14671).
T1 sequence: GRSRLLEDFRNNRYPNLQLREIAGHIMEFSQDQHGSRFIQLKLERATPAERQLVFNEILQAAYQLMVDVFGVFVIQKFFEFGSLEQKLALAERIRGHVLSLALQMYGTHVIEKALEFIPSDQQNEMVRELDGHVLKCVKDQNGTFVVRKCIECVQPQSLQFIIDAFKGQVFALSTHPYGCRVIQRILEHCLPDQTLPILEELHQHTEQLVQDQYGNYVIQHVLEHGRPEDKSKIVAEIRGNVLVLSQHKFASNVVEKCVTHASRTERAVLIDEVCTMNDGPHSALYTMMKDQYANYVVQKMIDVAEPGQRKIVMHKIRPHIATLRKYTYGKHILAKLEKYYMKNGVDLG

For assay [2], the target named is T2, PUM1 PUF domain R3-THE R4-TFR R7-NPG C935T + R936H + Q939E + N971T + H972F + Q975R + S1079N + N1080P + E1083G (Homo sapiens) (UniProt Q14671).
T2 sequence: T1 sequence with V72N, F73Y, S252N, N253P, E256G

Assay [3] has as its target T3, PUM1 PUF domain R3-THE R4-TFR C935T + R936H + Q939E + N971T + H972F + Q975R (UniProt Q14671).
T3 sequence: T1 sequence with V72N, F73Y

Assay [4] addresses T4, PUM1 PUF domain R6-SWD R7-NPG N1043S + Y1044W + Q1047D + S1079N + N1080P + E1083G (Homo sapiens) (UniProt Q14671).
T4 sequence: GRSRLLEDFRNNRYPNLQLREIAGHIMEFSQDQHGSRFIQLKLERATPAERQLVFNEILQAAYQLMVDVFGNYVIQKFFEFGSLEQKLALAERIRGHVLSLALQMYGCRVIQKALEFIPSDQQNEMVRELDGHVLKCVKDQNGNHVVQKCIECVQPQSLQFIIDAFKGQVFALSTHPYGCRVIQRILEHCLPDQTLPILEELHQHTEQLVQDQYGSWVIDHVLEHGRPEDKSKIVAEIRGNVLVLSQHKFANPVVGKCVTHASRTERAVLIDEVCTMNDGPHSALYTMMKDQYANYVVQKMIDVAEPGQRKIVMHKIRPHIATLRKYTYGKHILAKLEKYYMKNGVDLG

Assay [5] concerns the target T5, PUM1 PUF domain R5-PHQ R6-SWD C1007P + R1008H + N1043S + Y1044W + Q1047D (UniProt Q14671).
T5 sequence: T4 sequence with C180P, R181H, N252S, P253N, G256E

Assay [6] has as its target T6, PUM1 PUF domain R6-SWD R7-NPG N1043S + Y1044W + Q1047D + S1079N + N1080P + E1083G (UniProt Q14671).
T6 sequence: T4 sequence

Numbering of substitutions follows the chain as printed. Some of the results follow. For some of these results: At the low end of the ranking, values are background and their order means little. For some of these results: The exact form of the protein is not confirmed.

Regarding “GGCUAGAACUAGUGGAUCCCCCGGCGCCCGGCGGCUCGAGCCCGGGUAAGGCGGGGUAGUCUGCAUGCCGCCGGGCGCCAUGCCUGCAGGUCGACUCUAGAAAACAUG”, the binding signal (log2 enrichment (interaction score)) in assay [1] is -5.66; in assay [2] it was -1.14.
For the sequence “GGCUAGAACUAGUGGAUCCCCCGGCGCCCGGCGGCUCGAGCCCGGGUAAGUUCACUACGUCUGCAUGCCGCCGGGCGCCAUGCCUGCAGGUCGACUCUAGAAAACAUG”, the binding signal (log2 enrichment (interaction score)) was -5.18 in assay [1] and -1.09 in assay [2].
For “GGCUAGAACUAGUGGAUCCCCCGGCGCCCGGCGGCUCGAGCCCGGGUAAGUGUUAGAAGUCUGCAUGCCGCCGGGCGCCAUGCCUGCAGGUCGACUCUAGAAAACAUG”, the figures for the binding signal (log2 enrichment (interaction score)) in assay [1], in assay [3] and in assay [4] were below -5.5, -7.39 and -1.51, respectively.
Consider “GGCUAGAACUAGUGGAUCCCCCGGCGCCCGGCGGCUCGAGCCCGGGUAAGUGGACACGGUCUGCAUGCCGCCGGGCGCCAUGCCUGCAGGUCGACUCUAGAAAACAUG”, for which the binding signal (log2 enrichment (interaction score)) was -6.1 in assay [1] and below -0.38 in assay [2].
For “GGCUAGAACUAGUGGAUCCCCCGGCGCCCGGCGGCUCGAGCCCGGGUAAGAAGAGUGAGUCUGCAUGCCGCCGGGCGCCAUGCCUGCAGGUCGACUCUAGAAAACAUG”, in that order: -5.71 and -1.07.
Consider “GGCUAGAACUAGUGGAUCCCCCGGCGCCCGGCGGCUCGAGCCCGGGUAAGUUGAAGUUGUCUGCAUGCCGCCGGGCGCCAUGCCUGCAGGUCGACUCUAGAAAACAUG”, for which the binding signal (log2 enrichment (interaction score)) is below -5.84 in assay [1], -6.19 in assay [3], -9.14 in assay [5] and -0.47 in assay [4].
For “GGCUAGAACUAGUGGAUCCCCCGGCGCCCGGCGGCUCGAGCCCGGGUAAGUAGCAAUAGUCUGCAUGCCGCCGGGCGCCAUGCCUGCAGGUCGACUCUAGAAAACAUG”, the binding signal (log2 enrichment (interaction score)) was -5.29 in assay [1], -7.31 in assay [3] and -1.45 in assay [4].
Taken in the same sequence, the figures for “GGCUAGAACUAGUGGAUCCCCCGGCGCCCGGCGGCUCGAGCCCGGGUAAGUUUAAGACGUCUGCAUGCCGCCGGGCGCCAUGCCUGCAGGUCGACUCUAGAAAACAUG” were -5.43, -7.71 and -1.23.
For the sequence “GGCUAGAACUAGUGGAUCCCCCGGCGCCCGGCGGCUCGAGCCCGGGUAAGUUCCCGAGGUCUGCAUGCCGCCGGGCGCCAUGCCUGCAGGUCGACUCUAGAAAACAUG”, the binding signal (log2 enrichment (interaction score)) is -4.85 in assay [1] and -1.41 in assay [2].
Taken in the same sequence, the figures for “GGCUAGAACUAGUGGAUCCCCCGGCGCCCGGCGGCUCGAGCCCGGGUAAGUAGAGAUCGUCUGCAUGCCGCCGGGCGCCAUGCCUGCAGGUCGACUCUAGAAAACAUG” were -5.37 and -1.36.
With “GGCUAGAACUAGUGGAUCCCCCGGCGCCCGGCGGCUCGAGCCCGGGUAAGUUCAAGUUGUCUGCAUGCCGCCGGGCGCCAUGCCUGCAGGUCGACUCUAGAAAACAUG”, the binding signal (log2 enrichment (interaction score)) was -5.5 in assay [1], below -6.26 in assay [3], below -6.97 in assay [5] and -0.26 in assay [4].
On to “GGCUAGAACUAGUGGAUCCCCCGGCGCCCGGCGGCUCGAGCCCGGGUAAGUUGAGGUAGUCUGCAUGCCGCCGGGCGCCAUGCCUGCAGGUCGACUCUAGAAAACAUG”, for which the binding signal (log2 enrichment (interaction score)) is -5.38 in assay [1], -6.82 in assay [3], -8.41 in assay [5] and -2.22 in assay [6].
Consider “GGCUAGAACUAGUGGAUCCCCCGGCGCCCGGCGGCUCGAGCCCGGGUAAGUUUAUGAGGUCUGCAUGCCGCCGGGCGCCAUGCCUGCAGGUCGACUCUAGAAAACAUG”, for which the values for the binding signal (log2 enrichment (interaction score)) in assay [1] and in assay [2] were -5.71 and -1.7, respectively.
Turning to “GGCUAGAACUAGUGGAUCCCCCGGCGCCCGGCGGCUCGAGCCCGGGUAAGUAGAUAGAGUCUGCAUGCCGCCGGGCGCCAUGCCUGCAGGUCGACUCUAGAAAACAUG”, the binding signal (log2 enrichment (interaction score)) was -5.55 in assay [1], -6.95 in assay [3] and -8.4 in assay [5].
Take “GGCUAGAACUAGUGGAUCCCCCGGCGCCCGGCGGCUCGAGCCCGGGUAAGUCCCCUAAGUCUGCAUGCCGCCGGGCGCCAUGCCUGCAGGUCGACUCUAGAAAACAUG”: the binding signal (log2 enrichment (interaction score)) was -4.98 in assay [1] and -1.4 in assay [2].
For “GGCUAGAACUAGUGGAUCCCCCGGCGCCCGGCGGCUCGAGCCCGGGUAAGAUGAAGAAGUCUGCAUGCCGCCGGGCGCCAUGCCUGCAGGUCGACUCUAGAAAACAUG”, the binding signal (log2 enrichment (interaction score)) was -6.38 in assay [1], -6.8 in assay [3], below -7.88 in assay [5] and -0.96 in assay [4].
For “GGCUAGAACUAGUGGAUCCCCCGGCGCCCGGCGGCUCGAGCCCGGGUAAGUCAAAGUCGUCUGCAUGCCGCCGGGCGCCAUGCCUGCAGGUCGACUCUAGAAAACAUG”, in that order: -4.93, -7.4, -7.37 and -0.15.
Consider “GGCUAGAACUAGUGGAUCCCCCGGCGCCCGGCGGCUCGAGCCCGGGUAAGUUUUGAUAGUCUGCAUGCCGCCGGGCGCCAUGCCUGCAGGUCGACUCUAGAAAACAUG”, for which the binding signal (log2 enrichment (interaction score)) in assay [1] is -6.01; in assay [3], -7.23; in assay [5] it was below -8.07; in assay [6], -2.02.
As for “GGCUAGAACUAGUGGAUCCCCCGGCGCCCGGCGGCUCGAGCCCGGGUAAGUUGAGUUUGUCUGCAUGCCGCCGGGCGCCAUGCCUGCAGGUCGACUCUAGAAAACAUG”, the binding signal (log2 enrichment (interaction score)) is -5.43 in assay [1] and below -1.2 in assay [2].
Regarding “GGCUAGAACUAGUGGAUCCCCCGGCGCCCGGCGGCUCGAGCCCGGGUAAGUGGCCGAAGUCUGCAUGCCGCCGGGCGCCAUGCCUGCAGGUCGACUCUAGAAAACAUG”, the binding signal (log2 enrichment (interaction score)) is -5.66 in assay [1], -6.1 in assay [3] and below -7.83 in assay [5].
Taken in the same sequence, the figures for “GGCUAGAACUAGUGGAUCCCCCGGCGCCCGGCGGCUCGAGCCCGGGUAAGUCUAGAUAGUCUGCAUGCCGCCGGGCGCCAUGCCUGCAGGUCGACUCUAGAAAACAUG” were -6.18, -7.25 and below -7.56.
Take “GGCUAGAACUAGUGGAUCCCCCGGCGCCCGGCGGCUCGAGCCCGGGUAAGUAUAGCAAGUCUGCAUGCCGCCGGGCGCCAUGCCUGCAGGUCGACUCUAGAAAACAUG”: the binding signal (log2 enrichment (interaction score)) was below -5.82 in assay [1] and -1.58 in assay [2].
Taken in the same sequence, the figures for “GGCUAGAACUAGUGGAUCCCCCGGCGCCCGGCGGCUCGAGCCCGGGUAAGUUGCAUGAGUCUGCAUGCCGCCGGGCGCCAUGCCUGCAGGUCGACUCUAGAAAACAUG” were -5.68 and -1.6.

Values taken from paper PMC8384837.
